The list shows only some results of the screen, not a fair sample: it gathers tests that were run many times, whatever their T/C, doses with no T/C, and many T/C values between a quarter and a half above the control. Further doses and runs are listed elsewhere. T/C: endpoint of the treated group in % of that of the vehicle group. Some doses have a count of surviving animals in place of a T/C: the source holds a T/C of zero for them, seemingly a mark for toxic or unscored doses. Some doses without a T/C left all or most animals alive at the check, yet need not have been tolerated: the source hardly ever lists a survival T/C far under the control, and the zero likely stands for such cases as well. Survivors were counted at the toxicity check, usually on the fifth day, unless a day is given; later deaths do not show. Schedules are NCI's codes, taken here to give the interval after Q, in days (D) or hours (H), and the number of doses after X. Some schedule codes hold Z or #, which are not explained here. Some structures stand for samples that the source files as different forms (salt, stereo form or complex); doses refer to the form tested. Some entries were tested several times; the results are listed from low to high. Where survival is the endpoint, the PubChem record calls one and a half times the control and up active, and a quarter to a half above the control has no call in these data; cut-offs in other NCI protocols can differ.
System: L1210 leukemia ip in BDF1 mice, survival T/C
Assay: NCI In Vivo Anticancer Drug Screen. Data for tumor model L1210 Leukemia (intraperitoneal) in B6D2F1 (BDF1) mice
Conditions: T/C endpoint: mean survival time, higher T/C = longer survival
[1] = dose: 400.0 mg/kg/injection, schedule: Q01DX001 (ip), vehicle: carboxymethylcellulose (CMC)

## CC(C)(C)C1CCC(NC(=O)N(CCCl)N=O)CC1 (centres undefined)
dose: 31.0 mg/kg/injection, schedule: Q01DX001 (ip), vehicle: other
  T/C: 133 % of control
dose: 62.0 mg/kg/injection, schedule: Q01DX001 (ip), vehicle: other
  T/C: 142 % of control
dose: 472.0 mg/kg/injection, schedule: Q01DX001 (ip), vehicle: other
  T/C: 143 % of control
dose: 944.0 mg/kg/injection, schedule: Q01DX001 (ip), vehicle: other
  T/C: 137 % of control
dose: 1500.0 mg/kg/injection, schedule: Q01DX001 (ip), vehicle: other
  T/C: 146 % of control

## C/C=C/C[P+](CC)(c1ccccc1)c1ccccc1
dose: 6.25 mg/kg/injection, schedule: Q01DX009 (ip), vehicle: saline
  survivor count: 0 of 3
dose: 12.5 mg/kg/injection, schedule: Q01DX009 (ip), vehicle: saline with Tween-80
  survivor count: 0 of 3
dose: 12.5 mg/kg/injection, schedule: Q01DX009 (ip), vehicle: saline
  survivor count: 0 of 3
dose: 25.0 mg/kg/injection, schedule: Q01DX009 (ip), vehicle: saline with Tween-80
  survivor count: 0 of 3
dose: 50.0 mg/kg/injection, schedule: Q01DX009 (ip), vehicle: saline with Tween-80
  survivor count: 0 of 3
dose: 50.0 mg/kg/injection, schedule: Q01DX009 (ip), vehicle: saline
  survivor count: 0 of 3
dose: 100.0 mg/kg/injection, schedule: Q01DX009 (ip), vehicle: saline
  survivor count: 0 of 3
dose: 200.0 mg/kg/injection, schedule: Q01DX009 (ip), vehicle: saline
  survivor count: 0 of 3

## O=C1c2cc([N+](=O)[O-])ccc2-c2ccc([N+](=O)[O-])cc21
dose: 100.0 mg/kg/injection, schedule: Q01DX009 (ip), vehicle: Klucel (hydroxypropylcellulose) (HPC)
  survivor count: 3 of 3

## CC(C)c1cc(O)ccc1N(C)C (tested in a mixture with another compound)
dose: 100.0 mg/kg/injection, schedule: Q01DX001 (ip), vehicle: saline
  survivor count: 0 of 6
dose: 200.0 mg/kg/injection, schedule: Q01DX001 (ip), vehicle: saline
  survivor count: 0 of 6
dose: 400.0 mg/kg/injection, schedule: Q01DX001 (ip), vehicle: saline
  survivor count: 0 of 6
dose: 6.3 micrograms/kg/injection, schedule: Q01DX009 (ip), vehicle: saline
  survivor count: 3 of 6
dose: 12.5 micrograms/kg/injection, schedule: Q01DX009 (ip), vehicle: saline
  survivor count: 2 of 6

## C=CCC(O)C=C (centres undefined)
dose: 200.0 mg/kg/injection, schedule: Q01DX001 (ip), vehicle: carboxymethylcellulose (CMC)
  survivor count: 1 of 4
[1]
  survivor count: 0 of 4

## CCCC(CCC)NCCOC(=O)c1ccc(N)cc1
dose: 150.0 mg/kg/injection, schedule: Q01DX001 (ip), vehicle: other
  survivor count: 0 of 6
dose: 300.0 mg/kg/injection, schedule: Q01DX001 (ip), vehicle: other
  survivor count: 0 of 6

## NC(N)=N/N=C/c1c2ccccc2cc2ccccc12
dose: 60.0 mg/kg/injection, schedule: Q01DX Z (ip), vehicle: carboxymethylcellulose (CMC)
  survivor count: 3 of 6
dose: 120.0 mg/kg/injection, schedule: Q01DX Z (ip), vehicle: carboxymethylcellulose (CMC)
  survivor count: 0 of 6
dose: 480.0 mg/kg/injection, schedule: Q01DX Z (oral), vehicle: carboxymethylcellulose (CMC)
  survivor count: 5 of 6

## O=C1c2ccccc2C(=O)N1O
[1]
  survivor count: 0 of 4

## COc1ccc(I)c([N+](=O)[O-])c1
dose: 400.0 mg/kg/injection, schedule: Q01DX009 (ip), vehicle: Klucel (hydroxypropylcellulose) (HPC)
  survivor count: 5 of 6

## Cc1ccc2c3nc4ccccc4c-3csc2c1
dose: 50.0 mg/kg/injection, schedule: Q04DX003 (ip), vehicle: saline
  survivor count: 6 of 6
dose: 80.0 mg/kg/injection, schedule: Q01DX009 (ip), vehicle: saline
  survivor count: 3 of 6 and 6 of 6
dose: 100.0 mg/kg/injection, schedule: Q04DX003 (ip), vehicle: acetone
  survivor count: 4 of 6
dose: 200.0 mg/kg/injection, schedule: Q04DX003 (ip), vehicle: acetone
  survivor count: 0 of 6
dose: 400.0 mg/kg/injection, schedule: Q04DX003 (ip), vehicle: acetone
  survivor count: 1 of 6

## Cn1cnc2cnc([N+](C)(C)C)nc21
dose: 400.0 mg/kg/injection, schedule: Q04DX003 (ip), vehicle: saline
  survivor count: 1 of 6

Source: PubChem BioAssay AID248 (DTP/NCI, 2004)
